# Data taken from patent US11458099B2, “Inhalable antimicrobial particles and methods of making the same” (The Penn State Research Foundation, priority 2017, dated 2022).
# Test system: S. aureus (+)
# Assay: MIC of VAN, NGVAN, NG (broth dilution)
# Type: cell-based
# Conditions: Staphylococcus aureus, drug or equivalent concentration of drug loaded into nanogels
# Method: 2× Dilutions of treatments in broth were plated into a U-bottom 96 well plate. Overnight cultures of Pseudomonas aeruginosa, Escherichia coli, Acinetobacter baumannii, Salmonella enterica and Staphylococcus aureus were incubated in cation adjusted Mueller-Hinton broth as advised by CLSI. Bacteria were diluted to an OD600 of 0.002 and plated in a 1:1 volume ratio with the treatments. These cultures were incubated overnight and MIC values were assessed by visual evaluation of growth inhibition when compared to untreated samples.
smiles,measurement,value
"CN[C@H](CC(C)C)C(=O)N[C@H]1C(=O)N[C@@H](CC(N)=O)C(=O)N[C@H]2C(=O)N[C@H]3C(=O)N[C@H](C(=O)N[C@H](C(=O)O)c4cc(O)cc(O)c4-c4cc3ccc4O)[C@H](O)c3ccc(c(Cl)c3)Oc3cc2cc(c3O[C@@H]2O[C@H](CO)[C@@H](O)[C@H](O)[C@H]2O[C@H]2C[C@](C)(N)[C@H](O)[C@H](C)O2)Oc2ccc(cc2Cl)[C@H]1O [VAN, Vancomycin]",MIC,4.5 µg/mL
